# Experimental data as given in the supplement of paper PMC4635364.
# Where a name gives a salt, the structure may show the parent alone. Some of the results follow. Repeats in this data set agree poorly, so a single value says little.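 Human fetal ventral-midbrain neural progenitor line ReNCell VM, differentiated without mitogens. Images stained for doublecortin (early neurons) or tyrosine hydroxylase (dopaminergic neurons) were scored by blinded raters against untreated wells (0 = no change). Repeats and both raters were averaged, and compounds averaging 2 or higher were picked as hits for retesting.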
# Legend:
# ReNCell VM [1] = assay: neuronal differentiation score (DCX+ cell fraction vs untreated, manual image score) (score (-3 to 3)); higher = more neuronal differentiation; conditions: 2 uM, 2 weeks
# ReNCell VM [2] = assay: dopaminergic neuron differentiation score (TH+ cell fraction vs untreated, manual image score) (score (0 to 3)); higher = more TH+ dopaminergic neuron differentiation; conditions: 2 uM, 4 weeks, BDNF 10 ng/ml + GDNF 10 ng/ml
smiles,measurement,setting,value
"OCCNCCCOc1cccc(Cl)c1Cl [2,3-DCPE hydrochloride]",neuronal differentiation score,ReNCell VM [1]; library: Tocriscreen,inactive: 0
same,dopaminergic neuron differentiation score,ReNCell VM [2]; library: Tocriscreen,inactive: 0
NC(=O)Nc1sc(-c2ccc(F)cc2)cc1C(N)=O,neuronal differentiation score,ReNCell VM [1]; library: Tocriscreen,inactive: 0
same,dopaminergic neuron differentiation score,ReNCell VM [2]; library: Tocriscreen,inactive: 0
COc1ccc2c(c1)N(C[C@H](C)CN(C)C)c1ccccc1S2 [Methotrimeprazine maleat salt],neuronal differentiation score,ReNCell VM [1]; library: Prestwick,inactive: 0
same,dopaminergic neuron differentiation score,ReNCell VM [2]; library: Prestwick,inactive: 0
"c1cnc2c(c1)ccc1cccnc12 [1,10-Phenanthroline monohydrate]",neuronal differentiation score,ReNCell VM [1]; library: LOPAC,inactive: 0
same,dopaminergic neuron differentiation score,ReNCell VM [2]; library: LOPAC,inactive: 0
CC(=O)OC/C=C(\C)CC/C=C(\C)CC/C=C(\C)CC/C=C(\C)CC/C=C(\C)CC/C=C(\C)CC/C=C(\C)CC/C=C(\C)CCC=C(C)C,neuronal differentiation score,ReNCell VM [1]; library: Spectrum,inactive: 0
same,dopaminergic neuron differentiation score,ReNCell VM [2]; library: Spectrum,inactive: 0
Cc1cc(CC(C)CC(C)(C)C)n(O)c(=O)c1 (centres undefined),neuronal differentiation score,ReNCell VM [1]; library: Spectrum,inactive: 0
same,dopaminergic neuron differentiation score,ReNCell VM [2]; library: Spectrum,inactive: 0
CCC[C@@H]1C[C@@H](C(=O)N[C@@H]([C@H]2O[C@H](SC)[C@H](O)[C@@H](O)[C@H]2O)[C@@H](C)O)N(C)C1,neuronal differentiation score,ReNCell VM [1]; library: Spectrum,inactive: 0
same,dopaminergic neuron differentiation score,ReNCell VM [2]; library: Spectrum,inactive: 0
CC1(C)CCCC2(C)C1CCC1(C)OC(=O)CC12 (centres undefined) [norambreinolide],neuronal differentiation score,ReNCell VM [1]; library: Natural,inactive: 0
same,dopaminergic neuron differentiation score,ReNCell VM [2]; library: Natural,inactive: 0
c1cc(CN2CCCCC2)cc(OCCCNc2nc3ccccc3s2)c1 [Zolantidine dimaleate],neuronal differentiation score,ReNCell VM [1]; library: Tocriscreen,inactive: 0
same,dopaminergic neuron differentiation score,ReNCell VM [2]; library: Tocriscreen,inactive: 0
CC[C@H]1OC(=O)[C@H](C)[C@@H](O[C@H]2C[C@@](C)(OC)[C@@H](O)[C@H](C)O2)[C@H](C)[C@@H](O[C@@H]2O[C@H](C)C[C@H](N(C)C)[C@H]2O)[C@](C)(O)C[C@@H](C)[C@@H]2N[C@@H](COCCOC)O[C@H]([C@H]2C)[C@]1(C)O,neuronal differentiation score,ReNCell VM [1]; library: Spectrum,inactive: 1
same,dopaminergic neuron differentiation score,ReNCell VM [2]; library: Spectrum,inactive: 0
CCN(CC)C(=O)c1cccnc1,neuronal differentiation score,ReNCell VM [1]; library: Spectrum,inactive: 0
same,dopaminergic neuron differentiation score,ReNCell VM [2]; library: Spectrum,inactive: 0
O=C(Nc1ccccc1)c1ccccc1O,neuronal differentiation score,ReNCell VM [1]; library: Spectrum,inactive: 0
same,dopaminergic neuron differentiation score,ReNCell VM [2]; library: Spectrum,inactive: 0
Cc1ccsc1/C=C/C1=NCCCN1C,neuronal differentiation score,ReNCell VM [1]; library: Spectrum,inactive: 0
same,dopaminergic neuron differentiation score,ReNCell VM [2]; library: Spectrum,inactive: 0
CCCCS(=N)(=O)CCC(N)C(=O)O (centres undefined),neuronal differentiation score,ReNCell VM [1]; library: Spectrum,inactive: 0
same,dopaminergic neuron differentiation score,ReNCell VM [2]; library: Spectrum,inactive: 0
CN1CCN(C(c2ccccc2)c2ccc(Cl)cc2)CC1 (centres undefined) [Chlorcyclizine hydrochloride],neuronal differentiation score,ReNCell VM [1]; library: Prestwick,inactive: 0
same,dopaminergic neuron differentiation score,ReNCell VM [2]; library: Prestwick,inactive: 0
COc1cc2ccc(=O)oc2c(OC)c1OC,neuronal differentiation score,ReNCell VM [1]; library: Spectrum,inactive: 0
same,dopaminergic neuron differentiation score,ReNCell VM [2]; library: Spectrum,inactive: 0
Cc1nc2ccccc2n1Cc1ccc(Cl)cc1,neuronal differentiation score,ReNCell VM [1]; library: Spectrum,inactive: 0
same,dopaminergic neuron differentiation score,ReNCell VM [2]; library: Spectrum,inactive: 0
CC(C)(C)NCC(O)COc1cccc2c1CC(O)C(O)C2 (centres undefined),neuronal differentiation score,ReNCell VM [1]; library: Spectrum,inactive: 0
same,dopaminergic neuron differentiation score,ReNCell VM [2]; library: Spectrum,inactive: 0
C[C@H](NC[C@H](O)CP(=O)(O)Cc1ccccc1)c1ccc(Cl)c(Cl)c1,neuronal differentiation score,ReNCell VM [1]; library: Tocriscreen,inactive: 0
same,dopaminergic neuron differentiation score,ReNCell VM [2]; library: Tocriscreen,inactive: 0
CNCCc1ccccn1,neuronal differentiation score,ReNCell VM [1]; library: Spectrum,inactive: 0
same,dopaminergic neuron differentiation score,ReNCell VM [2]; library: Spectrum,inactive: 0
Cc1cccc(C(=O)NCN2CCN(c3ccccc3C#N)CC2)c1,neuronal differentiation score,ReNCell VM [1]; library: Tocriscreen,inactive: 0
same,dopaminergic neuron differentiation score,ReNCell VM [2]; library: Tocriscreen,inactive: 0
COC(=O)[C@@]1(C)CCC[C@]2(C)c3ccc(O)c(C(C)C)c3CCC12 (some centres undefined),neuronal differentiation score,ReNCell VM [1]; library: Spectrum,inactive: 0
same,dopaminergic neuron differentiation score,ReNCell VM [2]; library: Spectrum,inactive: 0

# Three records picked at random from the list so far, as already listed:
smiles,measurement,setting,value
CCCCS(=N)(=O)CCC(N)C(=O)O (centres undefined),neuronal differentiation score,ReNCell VM [1]; library: Spectrum,inactive: 0
"OCCNCCCOc1cccc(Cl)c1Cl [2,3-DCPE hydrochloride]",neuronal differentiation score,ReNCell VM [1]; library: Tocriscreen,inactive: 0
"c1cnc2c(c1)ccc1cccnc12 [1,10-Phenanthroline monohydrate]",dopaminergic neuron differentiation score,ReNCell VM [2]; library: LOPAC,inactive: 0
